The list shows a part of the results.
Assays:
Assay in all cases: glycan array binding signal (z-score within array); higher = stronger binding
Conditions in all cases: glycan notation: IUPAC condensed, linker removed
[1] = target: Gal(b1-4)GlcNAc(b1-3)Gal(b1-4)GlcNAc(b1-2)Man(a1-3)[Gal(b1-4)GlcNAc(b1-3)Gal(b1-4)GlcNAc(b1-2)Man(a1-6)]Man(b1-4)GlcNAc(b1-4)[Fuc(a1-6)]GlcNAc
Method in brief: (§1)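 Arrays were curated from the Consortium for Functional Glycomics database, 3228 in total, and kept only where the protein sequence was available. Binding is expressed as a within-array Z-score. This score was averaged across arrays of the same protein sequence at different concentrations or buffers and across linkers, and negative values can be read as non-binding.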

[2] = target: Gal(b1-4)GlcNAc(b1-3)Gal(b1-4)GlcNAc(b1-2)[Gal(b1-4)GlcNAc(b1-3)Gal(b1-4)GlcNAc(b1-6)]Man(a1-6)[Gal(b1-4)GlcNAc(b1-3)Gal(b1-4)GlcNAc(b1-2)Man(a1-3)]Man(b1-4)GlcNAc(b1-4)GlcNAc
Method in brief: as §1

[3] = target: Gal(b1-4)GlcNAc(b1-3)Gal(b1-4)GlcNAc(b1-2)[Gal(b1-4)GlcNAc(b1-3)Gal(b1-4)GlcNAc(b1-6)]Man(a1-6)[Gal(b1-4)GlcNAc(b1-3)Gal(b1-4)GlcNAc(b1-2)Man(a1-3)]Man(b1-4)GlcNAc(b1-4)[Fuc(a1-6)]GlcNAc
Method in brief: as §1

[4] = target: Gal(b1-4)GlcNAc(b1-3)Gal(b1-4)GlcNAc(b1-3)Gal(b1-4)GlcNAc
Method in brief: as §1

[5] = target: Gal(b1-4)GlcNAc(b1-3)Gal(b1-4)GlcNAc(b1-3)Gal(b1-4)GlcNAc(b1-2)Man(a1-3)[Gal(b1-4)GlcNAc(b1-3)Gal(b1-4)GlcNAc(b1-3)Gal(b1-4)GlcNAc(b1-2)Man(a1-6)]Man(b1-4)GlcNAc(b1-4)GlcNAc
Method in brief: as §1

[6] = target: Gal(b1-4)GlcNAc(b1-3)Gal(b1-4)GlcNAc(b1-3)Gal(b1-4)GlcNAc(b1-2)Man(a1-3)[Gal(b1-4)GlcNAc(b1-3)Gal(b1-4)GlcNAc(b1-3)Gal(b1-4)GlcNAc(b1-2)Man(a1-6)]Man(b1-4)GlcNAc(b1-4)[Fuc(a1-6)]GlcNAc
Method in brief: as §1

[7] = target: Gal(b1-4)GlcNAc(b1-3)Gal(b1-4)GlcNAc(b1-3)Gal(b1-4)GlcNAc(b1-2)[Gal(b1-4)GlcNAc(b1-3)Gal(b1-4)GlcNAc(b1-3)Gal(b1-4)GlcNAc(b1-6)]Man(a1-6)[Gal(b1-4)GlcNAc(b1-3)Gal(b1-4)GlcNAc(b1-3)Gal(b1-4)GlcNAc(b1-2)Man(a1-3)]Man(b1-4)GlcNAc(b1-4)[Fuc(a1-6)]GlcNAc
Method in brief: as §1

[8] = target: Gal(b1-4)GlcNAc(b1-3)Gal(b1-4)GlcNAc(b1-3)Gal(b1-4)GlcNAc(b1-3)Gal(b1-4)GlcNAc(b1-2)Man(a1-3)[Gal(b1-4)GlcNAc(b1-3)Gal(b1-4)GlcNAc(b1-3)Gal(b1-4)GlcNAc(b1-3)Gal(b1-4)GlcNAc(b1-2)Man(a1-6)]Man(b1-4)GlcNAc(b1-4)GlcNAc
Method in brief: as §1

[9] = target: Gal(b1-4)GlcNAc(b1-3)Gal(b1-4)GlcNAc(b1-3)Gal(b1-4)GlcNAc(b1-3)Gal(b1-4)GlcNAc(b1-2)Man(a1-3)[Gal(b1-4)GlcNAc(b1-3)Gal(b1-4)GlcNAc(b1-3)Gal(b1-4)GlcNAc(b1-3)Gal(b1-4)GlcNAc(b1-2)Man(a1-6)]Man(b1-4)GlcNAc(b1-4)[Fuc(a1-6)]GlcNAc
Method in brief: as §1

[10] = target: Gal(b1-4)GlcNAc(b1-3)Gal(b1-4)GlcNAc(b1-3)Gal(b1-4)GlcNAc(b1-3)Gal(b1-4)GlcNAc(b1-2)[Gal(b1-4)GlcNAc(b1-3)Gal(b1-4)GlcNAc(b1-3)Gal(b1-4)GlcNAc(b1-3)Gal(b1-4)GlcNAc(b1-6)]Man(a1-6)[Gal(b1-4)GlcNAc(b1-3)Gal(b1-4)GlcNAc(b1-3)Gal(b1-4)GlcNAc(b1-3)Gal(b1-4)GlcNAc(b1-2)Man(a1-3)]Man(b1-4)GlcNAc(b1-4)[Fuc(a1-6)]GlcNAc
Method in brief: as §1

[11] = target: Gal(b1-4)GlcNAc(b1-3)Gal(b1-4)GlcNAc(b1-3)Gal(b1-4)GlcNAc(b1-3)Gal(b1-4)GlcNAc(b1-3)Gal(b1-4)GlcNAc(b1-2)Man(a1-3)[Gal(b1-4)GlcNAc(b1-3)Gal(b1-4)GlcNAc(b1-3)Gal(b1-4)GlcNAc(b1-3)Gal(b1-4)GlcNAc(b1-3)Gal(b1-4)GlcNAc(b1-2)Man(a1-6)]Man(b1-4)GlcNAc(b1-4)GlcNAc
Method in brief: as §1

[12] = target: Gal(b1-4)GlcNAc(b1-3)Gal(b1-4)GlcNAc(b1-3)Gal(b1-4)GlcNAc(b1-3)Gal(b1-4)GlcNAc(b1-3)Gal(b1-4)GlcNAc(b1-2)Man(a1-3)[Gal(b1-4)GlcNAc(b1-3)Gal(b1-4)GlcNAc(b1-3)Gal(b1-4)GlcNAc(b1-3)Gal(b1-4)GlcNAc(b1-3)Gal(b1-4)GlcNAc(b1-2)Man(a1-6)]Man(b1-4)GlcNAc(b1-4)[Fuc(a1-6)]GlcNAc
Method in brief: as §1

[13] = target: Gal(b1-4)GlcNAc(b1-3)Gal(b1-4)GlcNAc(b1-3)Gal(b1-4)GlcNAc(b1-3)Gal(b1-4)GlcNAc(b1-3)Gal(b1-4)GlcNAc(b1-2)[Gal(b1-4)GlcNAc(b1-3)Gal(b1-4)GlcNAc(b1-3)Gal(b1-4)GlcNAc(b1-3)Gal(b1-4)GlcNAc(b1-3)Gal(b1-4)GlcNAc(b1-6)]Man(a1-6)[Gal(b1-4)GlcNAc(b1-3)Gal(b1-4)GlcNAc(b1-3)Gal(b1-4)GlcNAc(b1-3)Gal(b1-4)GlcNAc(b1-3)Gal(b1-4)GlcNAc(b1-2)Man(a1-3)]Man(b1-4)GlcNAc(b1-4)[Fuc(a1-6)]GlcNAc
Method in brief: as §1

[14] = target: Gal(b1-4)GlcNAc(b1-3)Gal(b1-4)GlcNAc(b1-3)Gal(b1-4)GlcNAc(b1-3)Gal(b1-4)GlcNAc(b1-3)Gal(b1-4)GlcNAc(b1-3)Gal(b1-4)GlcNAc(b1-2)Man(a1-3)[Gal(b1-4)GlcNAc(b1-3)Gal(b1-4)GlcNAc(b1-3)Gal(b1-4)GlcNAc(b1-3)Gal(b1-4)GlcNAc(b1-3)Gal(b1-4)GlcNAc(b1-3)Gal(b1-4)GlcNAc(b1-2)Man(a1-6)]Man(b1-4)GlcNAc(b1-4)GlcNAc
Method in brief: as §1

[15] = target: Gal(b1-4)GlcNAc(b1-3)Gal(b1-4)GlcNAc(b1-3)GalNAc
Method in brief: as §1

[16] = target: Gal(b1-4)GlcNAc(b1-3)Gal(b1-4)GlcNAc(b1-3)[Gal(b1-4)GlcNAc(b1-3)Gal(b1-4)GlcNAc(b1-6)]GalNAc
Method in brief: as §1

[17] = target: Gal(b1-4)GlcNAc(b1-3)Gal(b1-4)GlcNAc(b1-6)[Gal(b1-3)]GalNAc
Method in brief: as §1

[18] = target: Gal(b1-4)GlcNAc(b1-3)Gal(b1-4)[Fuc(a1-3)]GlcNAc(b1-3)Gal(b1-4)[Fuc(a1-3)]GlcNAc
Method in brief: as §1

[19] = target: Gal(b1-4)GlcNAc(b1-3)GalNAc
Method in brief: as §1

[20] = target: Gal(b1-4)GlcNAc(b1-3)[Fuc(a1-3)GlcNAc(b1-6)]Gal(b1-4)Glc
Method in brief: as §1

[21] = target: Gal(b1-4)GlcNAc(b1-3)[Gal(b1-4)GlcNAc(b1-6)]Gal(b1-4)GlcNAc
Method in brief: as §1

[22] = target: Gal(b1-4)GlcNAc(b1-3)[GlcNAc(b1-6)]Gal(b1-4)GlcNAc
Method in brief: as §1

[23] = target: Gal(b1-4)GlcNAc(b1-6)Gal(b1-4)GlcNAc
Method in brief: as §1

[24] = target: Gal(b1-4)GlcNAc(b1-6)GalNAc
Method in brief: as §1

[25] = target: Gal(b1-4)GlcNAc(b1-6)[Gal(b1-3)]GalNAc
Method in brief: as §1

[26] = target: Gal(b1-4)GlcNAc(b1-6)[Gal(b1-4)GlcNAc(b1-3)]GalNAc
Method in brief: as §1

[27] = target: Gal(b1-4)GlcNAc6P
Method in brief: as §1

[28] = target: Gal(b1-6)Gal
Method in brief: as §1

[29] = target: Gal3S(b1-3)GalNAc
Method in brief: as §1

[30] = target: Gal3S(b1-3)GlcNAc
Method in brief: as §1

[31] = target: Gal3S(b1-3)[Fuc(a1-4)]GlcNAc
Method in brief: as §1

[32] = target: Gal3S(b1-4)Glc
Method in brief: as §1

[33] = target: Gal3S(b1-4)Glc6S
Method in brief: as §1

[34] = target: Gal3S(b1-4)GlcNAc
Method in brief: as §1

[35] = target: Gal3S(b1-4)[Fuc(a1-3)]Glc6S
Method in brief: as §1

[36] = target: Gal3S(b1-4)[Fuc(a1-3)]GlcNAc
Method in brief: as §1

[37] = target: Gal3S(b1-4)[Fuc(a1-3)]GlcNAc6S
Method in brief: as §1

B1: MtEccB1 (Mycobacterium tuberculosis H37Rv), O69734 (protein)
chain: MGLRLTTKVQVSGWRFLLRRLEHAIVRRDTRMFDDPLQFYSRSIALGIVVAVLILAGAALLAYFKPQGKLGGTSLFTDRATNQLYVLLSGQLHPVYNLTSARLVLGNPANPATVKSSELSKLPMGQTVGIPGAPYATPVSAGSTSIWTLCDTVARADSTSPVVQTAVIAMPLEIDASIDPLQSHEAVLVSYQGETWIVTTKGRHAIDLTDRALTSSMGIPVTARPTPISEGMFNALPDMGPWQLPPIPAAGAPNSLGLPDDLVIGSVFQIHTDKGPQYYVVLPDGIAQVNATTAAALRATQAHGLVAPPAMVPSLVVRIAERVYPSPLPDEPLKIVSRPQDPALCWSWQRSAGDQSPQSTVLSGRHLPISPSAMNMGIKQIHGTATVYLDGGKFVALQSPDPRYTESMYYIDPQGVRYGVPNAETAKSLGLSSPQNAPWEIVRLLVDGPVLSKDAALLEHDTLPADPSPRKVPAGASGAP
[1]
  glycan array binding signal (z-score): 1.86
[2]
  glycan array binding signal (z-score): 2.86
[3]
  glycan array binding signal (z-score): 0.497
[4]
  glycan array binding signal (z-score): 2.06
[5]
  glycan array binding signal (z-score): 0.867
[6]
  glycan array binding signal (z-score): 0.884
[7]
  glycan array binding signal (z-score): 1.3
[8]
  glycan array binding signal (z-score): 0.021
[9]
  glycan array binding signal (z-score): 1.01
[10]
  glycan array binding signal (z-score): 1.93
[11]
  glycan array binding signal (z-score): 0.215
[12]
  glycan array binding signal (z-score): -0.351
[13]
  glycan array binding signal (z-score): 1.53
[14]
  glycan array binding signal (z-score): 2.86
[15]
  glycan array binding signal (z-score): -1.19
[16]
  glycan array binding signal (z-score): -0.178
[17]
  glycan array binding signal (z-score): 0.271
[18]
  glycan array binding signal (z-score): 0.353
[19]
  glycan array binding signal (z-score): 0.348
[20]
  glycan array binding signal (z-score): -1.02
[21]
  glycan array binding signal (z-score): -0.605
[22]
  glycan array binding signal (z-score): 0.413
[23]
  glycan array binding signal (z-score): 0.467
[24]
  glycan array binding signal (z-score): 0.63
[25]
  glycan array binding signal (z-score): -0.463
[26]
  glycan array binding signal (z-score): 1.45
[27]
  glycan array binding signal (z-score): 0.239
[28]
  glycan array binding signal (z-score): -0.836
[29]
  glycan array binding signal (z-score): 0.054
[30]
  glycan array binding signal (z-score): 1.11
[31]
  glycan array binding signal (z-score): 1.42
[32]
  glycan array binding signal (z-score): 1.08
[33]
  glycan array binding signal (z-score): 0.396
[34]
  glycan array binding signal (z-score): 0.016
[35]
  glycan array binding signal (z-score): -0.428
[36]
  glycan array binding signal (z-score): -0.872
[37]
  glycan array binding signal (z-score): 0.115
